Screen size: about 53,000 sequences; about 3,700 (7%) were called active.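 Rule for the calls: active = gene knockdowns whose robust z-score for IL-1 alpha signal is at least 2 or at most -2, so actives lie on both sides; inactive = the rest.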 Some of the results follow.

The assay in a line: Components of the Cytosolic LPS Sensing Pathway: Gene Identification via Genome-wide siRNA Screen.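 Note: robust z of the log signal after scaling to non-targeting control siRNA wells of the plate.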 As to conditions: RAW264.7 macrophages, IL-1a HTRF, actives lie on both sides, screened at 100 nM (by protocol), cells primed 5 h with Pam3CSK4 first. The gist of the method: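 Mouse macrophage line RAW264.7 is transfected with siRNA (100 nM final), grown 48h, primed with TLR ligand Pam3CSK4 5 h and given intracellular LipidA 24 h. IL-1a in supernatant is read by HTRF and viability by luminescence.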
In general terms: In TR-FRET formats the signal depends on donor and acceptor labels being close together.
For the sequence GCUACAGAAACCCGGGUAGTT against Jsrp1, the z-score was inactive: -1.46. In the case of CCUCCUUGUGGCAUAAUGATT against Gcc2, the z-score was inactive: 0.267. For GCAUUCCUCAUACUUACUGTT against Olfr671 the value was inactive: 0.574; for CCUCAUUUUAGUCGUAGAATT against Syt11, inactive: -0.345. For GCCUUCGACAUAGAGUACCTT against Eid2 the value was inactive: -0.129; for GGACCCUGCUUUUUAAAAATT against Harbi1, inactive: 0.293. For GCCAGCGACCUUUAGUACATT against Cmtm1 the value was active: 2.08; for GGUCACUGUAAAAUGAACCTT against Odf2, inactive: 1.48. With GGAAACUGAAGGAGGUACGTT against Ush1c, the z-score was inactive: 0.901.

As to GGCCGACCAGCUGUAUAAGTT against Pdha2, the z-score was inactive: -0.456. For GGAAUGCUACAACUCAAAATT against Ptk2 the value was inactive: -0.861; for GGUCAUAGAGCUUUAGAUUTT against Nxpe2, inactive: 1.16. For GGAAGAUUUACAGAUUCAATT against Lta4h the value was inactive: 0.534. As to “GGAACACAUGCUAAGCAGATT against 1110032A03Rik”, the z-score was inactive: 0.318. As to GCUCCUCGUUCCACACAUCTT against Alox12, the z-score was inactive: -1. For GGUAUACGUCUGAUAAUGATT against Aspm the value was inactive: -0.747; for GGUAAUGAUUUGUUAACAGTT against Abhd17b, inactive: -0.442; for CCUCACUGUUUUACACCUUTT against Olfr1152, inactive: 0.679. Turning to GGAAGUGGACCUGAGUGACTT against Taf6, the z-score was inactive: -0.887. Consider GGUCUUUAACAACAUUGGATT against Scyl2, for which the z-score was inactive: -0.195. As for GGCUUCCUGUUUGUUUGGATT against Gstp3, the figure is inactive: -0.216; as for CCUGAUUGACGACAGUAAGTT against Mcrs1, inactive: 0.519; as for CCCUAGUUUGAAUGUAAUATT against Npm2, inactive: -0.537. As for CCUGUUUGAGAUAUUUGAATT against Npnt, the figure is inactive: -0.856.

As to GCUGAUCGAGUAGCUAUUATT against Cse1l, the z-score was inactive: -0.719. For CCCUUAUCACAUGUGUGGATT against Wdr74 the value was inactive: -0.664. As for GGCAGAGAAUGGAAGAGAUTT against Ptma, the z-score is inactive: 0.537. For GGAGUUCAAGAGCACAAAUTT against Atp4a, the z-score was inactive: 1.18. As for GCUUAAAACUUCACGAGGATT against Ppp1r3c, the figure is inactive: -0.262; as for GGGAGGAAGAUGAUCCGGUTT against Pigyl, inactive: 0.427; as for GCCUUAAGAGAUGUAUUUCTT against Vmn1r33, inactive: -0.042. As for GGAGGAAAGUUGUAUUUGATT against Nudt7, the figure is inactive: 0.148; as for GGACUUCUACGUGAUGGAGTT against Pip5k1c, inactive: 1.05; as for GGCGACAUCAUGCUAAUGATT against Fgfbp1, inactive: 0.635.

On to GGUAUACACAUGAAAACCATT against Ccdc137, for which the z-score was inactive: -0.548.

As to GGAUGUGCAAGAGUAUCUCTT against Fbp2, the z-score was inactive: 0.273. For GAGGAGCUAUCAUCUCAGGTT against Lcorl the value was inactive: 0.656; for GGACGUGAAAGCUUUGGUUTT against Nrip3, inactive: 0.0357. For GGUAUGCAAGUGGAAUCUGTT against Selenoo the value was inactive: 0.516.

In the case of GGUGAGGUAGGUGAUGAGCTT against Tchhl1, the z-score was inactive: -0.626. Regarding GGGUUGAAAGAGCUUGCCATT against Vmn1r198, the z-score was active: -2.56. As for GCCUCCAAUAAGAUUAUAUTT against Ceacam10, the figure is inactive: -0.301; as for GGAAUGACAAUUGUAAACUTT against Mphosph6, inactive: -0.873; as for GGAGAUCCUCAAGGAGCAGTT against Park7, active: 2.02. For GGAGAUCACCAAAUUUGAGTT against Eef1d the value was inactive: -0.183; for GCCCAUCCCUUCCUUACGATT against Larp7, inactive: -0.506; for GCUGGUUCUGUUUGUUAUUTT against Olfr1014, inactive: 0.316. For CGUAUUUAUGUUCUGUUGUTT against Sox8 the value was inactive: 0.814; for GCAUCAUACUGACCUGAGATT against Gml2, inactive: -1.25; for GGAAGACUGUAGGAUUGAGTT against Cd320, inactive: 1.63. GGAAGCCUUGUGUGCACAUTT against Gng10: the z-score is inactive: 0.724.

Take GGUAAACAUUGCUACUUUGTT against Mpdz: the z-score was inactive: 0.935. For GGAAGAACAUUGUUACCUGTT against Svep1, the z-score is inactive: 1.1. As for GCCGCCACAGAAAAAGUCUTT against Dtx3l, the figure is inactive: -1.47; as for GGAAAGGAACAAAGAAUCATT against Cpb2, inactive: -0.421. For GGAUGCUUGGCUGAAUCACTT against Smyd1 the value was inactive: 1.88.

For GCCAGUUGGUUACUAUGGATT against Tax1bp3, the z-score was inactive: -0.412. In the case of GGAGAAGAAGAAAACGUACTT against Mmp10, the z-score was inactive: -0.978. As for GGUGAAUCGUGUUUCUGGATT against Fam193b, the figure is inactive: 0.298. For the sequence CCUGUUGUGCAGAUGGUUUTT against Rab28, the z-score was inactive: 0.0463. As for CGCCUUCAUUAUGGUGACGTT against Pigc, the figure is inactive: -0.817. Turning to GGAAGUCAUCUCCUACUAUTT against Lix1, the z-score was inactive: 0.545. As for GGUAAAGAGUAUGACAAUCTT against Vcpip1, the figure is inactive: -1.7; as for GGAAAUUUGCCUAUUGAAATT against Il6, inactive: 0.402; as for GCGGUAUGAGAAGGUUCCATT against Rap2a, active: 3.48. For CCUAAACAUGCUGUCCCUATT against Apoc3 the value was inactive: -0.864; for GGAGCUAAUAAACUGACCUTT against Mvb12b, inactive: 1.07; for GGUAAUACAUUCCUCUAACTT against Zfyve16, inactive: 0.991. As for GGUGGUGGUGGUGAUUUUGTT against Mad2l2, the z-score was inactive: -0.428. As for CCGCGUCGGGCCACCACUGTT against Tmem158, the figure is inactive: -1.67. As for CGGAGCGUGCUUACCAAAATT against Rps11, the figure is inactive: 0.674; as for GCACCACAUCUGCUAAUCUTT against Fam163a, inactive: -0.713; as for GGAAAUGAGUAGUAGUAGUTT against Svs4, inactive: -0.995. As for GGCCGUUGUUGUAAAUAAATT against Polr1c, the figure is inactive: 0.811; as for GGCCUGAAAAGACUGAUAATT against Vmn2r26, inactive: 1.18; as for GGCCUGUUUAGUCUAUAUATT against Lztfl1, inactive: -0.126. For GGACAUGAAGAUGGGAUCUTT against Cdk16, the z-score was inactive: 0.795. Take GCACAAGAUUGACAAGAGCTT against Babam1: the z-score is inactive: -1.24. As for GGAAAGUAUCCUGACAUUATT against Lig1, the figure is inactive: -0.29. For the sequence GGUAGACACCUUGUUCUUATT against Nap1l3, the z-score was inactive: 1.03. For ACAAGGGAGGUAAAAAGAGTT against Olfr92 the value was inactive: -0.64; for GCUGUUUUUACCUAGUUAGTT against Cpsf6, inactive: 0.251. As for GCUUACAUGACUGCCUUAUTT against Raf1, the figure is inactive: -0.137; as for GGGCAUGUGAAGAUGUGCGTT against Map2k3, inactive: -0.272. For GUCCCAAUACUACUUUUUUTT against Vmn1r6 the value was inactive: -0.533; for CCGUGGUUAUUUAGGACAATT against Trim60, inactive: 1.77. With GCCGAGUGAAAGCAAUUAUTT against Scg3, the z-score was inactive: 0.181. As for CGAUAAGGAUUACAGUGAGTT against Epb41l1, the figure is inactive: -0.447; as for GGCUCUCAAUUUUAUUUCUTT against Ncaph2, inactive: 0.894.

On to GGAAUAUGGAGCCUGAAAATT against Nudt15, for which the z-score is inactive: 0.521.

On to GCUUGUGAAAAAUUAUGAGTT against Ipo7, for which the z-score was inactive: -1.5. As for CCAGUCUACAACUGUUCCUTT against Ammecr1l, the figure is inactive: 1.59; as for CCCAGUAUCUCAUGUGCCATT against Aqp5, inactive: 0.178; as for CCGACCAAGCUCUAUGUGATT against Mrgprh, inactive: 0.902.

Consider CGAGUGCCAACUUUAGUUUTT against Hrh4, for which the z-score is inactive: 1.39. For GGCCAUUGUUCAGGUGUUUTT against Atp6v1b1 the value was inactive: 1.95. As for GCCAGCUACGUUUACGACUTT against Brms1, the figure is inactive: -0.252; as for GGUGGUUUCAACAAGUUCCTT against Dusp7, inactive: 0.765. For GGAUUGAAACAGAUGAGAGTT against Gtf2e1 the value was inactive: 0.833; for GCCAGUCGUAACAUAUUCUTT against Pikfyve, inactive: 0.0828. For the sequence GCCAAUCACAUUCCCAUGCTT against Umps, the z-score was inactive: -0.418. For GGUUUCUUCCACAGGACCUTT against Ddx59 the value was inactive: 0.235; for CCAGUCCGAUGUUUGUUAUTT against Zcchc13, inactive: -0.609.

Regarding GGGUGUGUGCUAAUGAACUTT against Hnf1b, the z-score was inactive: 0.421. As to CGGUUCUAGUUGAAAUUGUTT against Pcdha3, the z-score is inactive: -0.264.

On to GGCUUUAUGUAAGCAGAAGTT against Olfr948, for which the z-score is inactive: -0.687. For GGCAAAGAUCUUAUGGAGATT against Csf3r the value was inactive: 0.0079.

Values taken from PubChem BioAssay AID1508600 (Functional Genomics Laboratory (NCATS/FGL), 2020).
